These are yes or no findings as the source states them, for the method shown. Binding seen in cells or lysates may run through a third protein. Binding can be weak; no strength is given.
Target: Site-1 protease (S1P), proS1P (UniProt Q14703)
Test: co-IP

Protein sequences, listed by entry. Tags and fused reporters are not part of them. Lines headed by an entry give the natural chain unless they say otherwise; changes in a name come on top.
UniProt Q14703: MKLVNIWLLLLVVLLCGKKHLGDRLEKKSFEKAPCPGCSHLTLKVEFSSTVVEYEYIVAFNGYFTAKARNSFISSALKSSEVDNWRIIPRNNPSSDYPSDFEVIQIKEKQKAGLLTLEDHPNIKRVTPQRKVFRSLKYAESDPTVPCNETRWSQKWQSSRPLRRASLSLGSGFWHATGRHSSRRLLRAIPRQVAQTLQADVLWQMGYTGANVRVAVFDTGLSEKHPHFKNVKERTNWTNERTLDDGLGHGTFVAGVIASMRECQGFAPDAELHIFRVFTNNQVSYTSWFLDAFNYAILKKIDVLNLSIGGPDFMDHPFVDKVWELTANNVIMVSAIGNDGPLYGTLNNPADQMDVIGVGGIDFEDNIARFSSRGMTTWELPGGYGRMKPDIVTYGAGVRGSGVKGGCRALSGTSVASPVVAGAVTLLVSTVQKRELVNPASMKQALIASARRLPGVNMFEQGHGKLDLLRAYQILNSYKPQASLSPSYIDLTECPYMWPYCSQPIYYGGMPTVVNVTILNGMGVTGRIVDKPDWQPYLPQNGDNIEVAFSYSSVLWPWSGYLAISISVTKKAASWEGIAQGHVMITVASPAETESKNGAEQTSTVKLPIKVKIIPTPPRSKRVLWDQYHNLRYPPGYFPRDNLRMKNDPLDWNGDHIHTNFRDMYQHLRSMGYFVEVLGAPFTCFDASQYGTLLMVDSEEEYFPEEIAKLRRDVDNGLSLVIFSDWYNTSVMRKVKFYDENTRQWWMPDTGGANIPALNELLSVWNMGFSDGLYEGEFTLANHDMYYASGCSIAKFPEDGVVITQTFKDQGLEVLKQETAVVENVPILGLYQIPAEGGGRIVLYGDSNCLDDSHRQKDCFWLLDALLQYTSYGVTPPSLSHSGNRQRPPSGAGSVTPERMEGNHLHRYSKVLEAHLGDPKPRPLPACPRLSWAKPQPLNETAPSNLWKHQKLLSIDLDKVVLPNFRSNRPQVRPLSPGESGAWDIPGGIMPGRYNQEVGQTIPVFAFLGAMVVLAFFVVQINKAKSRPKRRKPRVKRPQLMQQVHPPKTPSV

B1: SPRING (C12ORF49) (protein, UniProt Q9H741 1-205)
chain: MVNLAAMVWRRLLRKRWVLALVFGLSLVYFLSSTFKQEERAVRDRNLLQVHDHNQPIPWKVQFNLGNSSRPSNQCRNSIQGKHLITDELGYVCERKDLLVNGCCNVNVPSTKQYCCDGCWPNGCCSAYEYCVSCCLQPNKQLLLERFLNRAAVAFQNLFMAVEDHFELCLAKCRTSSQSVQHENTYRDPIAKYCYGESPPELFPA
For B1, the binding was “binds”.

Reference: publication doi:10.1101/2023.03.28.534447
